Measured values: PubChem BioAssay AID504850 (National Center for Advancing Translational Sciences (NCATS), 2011)
In all, about 2,300 compounds went through this assay and about 1,200 (52%) were called active. So high a share suggests a set chosen from earlier hits. Inconclusive results, whose numbers are uncertain, are shown with a selection of clear calls. Calls come from the whole dose curve; as a rule, active = well fitted inhibition curve with a large enough effect; inconclusive = small, poorly fitted or top-dose-only effect, or effect the other way; inactive = no such curve, though single readings can be large or run the other way. Potencies beside an inconclusive call are fits to weak or partial responses and may not hold up.

assay: Confirmation screen for delayed death inhibitors of the malarial parasite plastid, 48 hour incubation; note: nearly all actives have a fitted effect of over 65% in size; settings: P. falciparum-infected erythrocytes, luciferase growth; series mostly up to 28.7 µM; activity change, negative = inhibition: at the top concentration
How it was run: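 Erythrocytes infected with luciferase-expressing P. falciparum (2% hematocrit, 0.1% parasitemia) incubated with compounds 48 hours at 37 C, 5% CO2, in RPMI/Albumax. Growth inhibition scored as reduced luminescence after detection reagent.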
% is set by controls: 0 for no effect and ±100 for the full control effect; potency is the fitted concentration of half-maximal effect.

SMILES | Potency | activity change, negative = inhibition
Cc1ccc(CN(Cc2ccccn2)C(=O)Nc2ccc(C)c(C)c2)cc1 | active: 14.1 µM | 
CC(C)c1cc(NC(=O)CCl)on1 | active: 10 µM | 
CCOc1cc(N2CCOCC2)c(OCC)cc1NC(=O)COC(=O)[C@@H]1CCCN1S(=O)(=O)c1ccccc1F | inconclusive: 22.4 µM [inhibitor, single point] | 
O=C(Nc1ccc2[nH]ncc2c1)c1ccc(F)cc1 | inconclusive: 12.6 µM [inhibitor, partial curve, poor fit] | 
CC(Oc1ccc(F)cc1)C(=O)Nc1ccc2ccccc2c1 (centres undefined) | inconclusive: 3.98 µM [inhibitor, partial curve, poor fit] | 
Cc1ccc(S(=O)(=O)N(Cc2ccccc2)C(C)C)cc1 |  | inactive: -11.4%
COc1ccc(C(=O)N2CCN(S(=O)(=O)c3ccc(C)cc3C)CC2)cc1OC | active: 12.6 µM | 
Cc1ccc(CCNC(=O)C2CCN(S(=O)(=O)c3ccc4c(c3)NC(=O)CO4)CC2)cc1 | inconclusive: 11.2 µM [inhibitor, partial curve] | 
CC(=O)/C(C#N)=C1\NC(=O)C(Cc2ccc(C)c(Cl)c2)S1 (centres undefined) | inconclusive: 15.8 µM [inhibitor, single point] | 
COc1ccccc1CCC(=O)N1CCN(S(=O)(=O)c2cc(C(F)(F)F)ccc2Cl)CC1 | inconclusive: 12.6 µM [inhibitor, partial curve] | 
Cc1cccc(-n2ccc(=O)c(C(=O)Nc3ccc(S(=O)(=O)N4CCOCC4)cc3)n2)c1 | active: 11.2 µM | 
O=C(C#Cc1ccccc1)Nc1ccccc1F | inconclusive: 20 µM [inhibitor, single point] | 
CC(C)C[C@H](NC(=O)c1nc[nH]c1C(=O)N1CCN(c2ccccc2)CC1)C(=O)OC(C)(C)C | inconclusive: 15.8 µM [inhibitor, single point] | 
Cc1ccc(C(=O)c2cc([N+](=O)[O-])ccc2N2CCOCC2)c(C)c1 | inconclusive: 11.2 µM [inhibitor, partial curve] | 
CN(C)c1ccc(CNc2ncnc3sccc23)cc1 |  | inactive: -16%
O=C(O)C1CC=CCC1C(=O)Nc1ccc(S(=O)(=O)N2CCCc3ccccc32)cc1 (centres undefined) | inconclusive: 14.1 µM [inhibitor, partial curve, poor fit] | 
COc1ccc(N2CCN(C3CCCN(Cc4ccc(F)cc4)C3)CC2)cc1 (centres undefined) | active: 11.2 µM | 
Cn1c(CCN2CCCCC2)nc2cc(NS(=O)(=O)c3ccc(F)cc3)ccc21 | inconclusive: 12.6 µM [inhibitor, partial curve, poor fit] | 
CC(=O)Nc1ccc(Nc2nnc(-c3ccc(C)c(S(=O)(=O)NCC4CCCO4)c3)c3ccccc23)cc1 (centres undefined) |  | inactive: -0.717%
COc1ccc(NC(=O)CN2CCN(S(=O)(=O)c3ccc(Br)cc3)CC2)c(OC)c1 | inconclusive: 11.2 µM [inhibitor, partial curve] | 
Cc1cccn2c(=O)c(C=O)c(Cl)nc12 | inconclusive: 14.1 µM [inhibitor, partial curve, poor fit] | 
O=C(c1ccc(F)c(S(=O)(=O)N2CCOCC2)c1)N1CCN(c2ccc(F)cc2)CC1 | inconclusive: 15.8 µM [inhibitor, partial curve, poor fit] | 
Cc1ccc(NC(=O)c2nnn(CC(=O)Nc3ccc4c(c3)OCO4)c2N)cc1C |  | inactive: -13.9%

Some of these compounds in order of length of the SMILES, descending:
SMILES | Potency | activity change, negative = inhibition
CCOc1cc(N2CCOCC2)c(OCC)cc1NC(=O)COC(=O)[C@@H]1CCCN1S(=O)(=O)c1ccccc1F | inconclusive: 22.4 µM [inhibitor, single point] | 
CC(C)C[C@H](NC(=O)c1nc[nH]c1C(=O)N1CCN(c2ccccc2)CC1)C(=O)OC(C)(C)C | inconclusive: 15.8 µM [inhibitor, single point] | 
Cc1cccc(-n2ccc(=O)c(C(=O)Nc3ccc(S(=O)(=O)N4CCOCC4)cc3)n2)c1 | active: 11.2 µM | 
Cc1ccc(CCNC(=O)C2CCN(S(=O)(=O)c3ccc4c(c3)NC(=O)CO4)CC2)cc1 | inconclusive: 11.2 µM [inhibitor, partial curve] | 
O=C(c1ccc(F)c(S(=O)(=O)N2CCOCC2)c1)N1CCN(c2ccc(F)cc2)CC1 | inconclusive: 15.8 µM [inhibitor, partial curve, poor fit] | 
O=C(O)C1CC=CCC1C(=O)Nc1ccc(S(=O)(=O)N2CCCc3ccccc32)cc1 (centres undefined) | inconclusive: 14.1 µM [inhibitor, partial curve, poor fit] | 
COc1ccc(C(=O)N2CCN(S(=O)(=O)c3ccc(C)cc3C)CC2)cc1OC | active: 12.6 µM | 
Cn1c(CCN2CCCCC2)nc2cc(NS(=O)(=O)c3ccc(F)cc3)ccc21 | inconclusive: 12.6 µM [inhibitor, partial curve, poor fit] | 
COc1ccc(N2CCN(C3CCCN(Cc4ccc(F)cc4)C3)CC2)cc1 (centres undefined) | active: 11.2 µM | 
O=C(Nc1ccc2[nH]ncc2c1)c1ccc(F)cc1 | inconclusive: 12.6 µM [inhibitor, partial curve, poor fit] | 
CN(C)c1ccc(CNc2ncnc3sccc23)cc1 |  | inactive: -16%
Cc1cccn2c(=O)c(C=O)c(Cl)nc12 | inconclusive: 14.1 µM [inhibitor, partial curve, poor fit] | 
O=C(C#Cc1ccccc1)Nc1ccccc1F | inconclusive: 20 µM [inhibitor, single point] | 
CC(C)c1cc(NC(=O)CCl)on1 | active: 10 µM | 

Remaining list, next part:

SMILES | Potency | activity change, negative = inhibition
O=C(/C=C/c1ccccc1)c1ccc(NC2=NCCCS2)cc1 | inconclusive: 3.16 µM [activator, partial curve] | 
CCOC(=O)c1c(NC(=O)CSc2ccccc2C(=O)O)sc(C)c1C |  | inactive: -6.55%
COc1ccc(C(=O)OCC[N+]2(C)CCCCC2)cc1 | inconclusive: 15.8 µM [inhibitor, single point] | 
CC/C(=N\OC(=O)c1ccc(OC(C)C)cc1)c1ccc(C)cc1 | inconclusive: 12.6 µM [inhibitor, partial curve, poor fit] | 
CCOC(=O)c1c(C)[nH]c(C(=O)Nc2cc(OCC)c(N3CCOCC3)cc2OCC)c1C | active: 2.51 µM | 
COc1ccccc1OCCCOc1cccc(/C=C2\SC(=O)NC2=O)c1 | inconclusive: 15.8 µM [inhibitor, partial curve] | 
COc1ccc2[nH]c3c(NCCC4=CCCCC4)ncnc3c2c1 | active: 5.62 µM | 
COC(=O)c1scc(C)c1S(=O)(=O)Nc1ccc(C)cc1 | inconclusive: 15.8 µM [inhibitor, partial curve, poor fit] | 
CSCCn1c(C(C)(C)C)cc(C(=O)O)c1C |  | inactive: 18.3%
CCOC(=O)C1(Cc2cccc(Cl)c2)CCCN(C(=O)C(C)(C)C)C1 (centres undefined) | inconclusive: 15.8 µM [inhibitor, single point] | 
Cc1nc(SC(C)C(=O)NC2CCCCC2C)c2c(C)c(C)sc2n1 (centres undefined) | inconclusive: 15.8 µM [inhibitor, single point] | 
O=S(=O)(c1cccs1)N1CCC(CO)(Cc2cccc(F)c2)CC1 |  | inactive: -62%
Cc1cnc(CNC(=O)c2ccc3oc(Cc4ccc(Cl)cc4)nc3c2)cn1 | inconclusive: 17.8 µM [inhibitor, partial curve, poor fit] | 
COCCN(C(=O)c1ccccc1F)c1nnc(-c2ccc(OC)cc2)s1 | active: 10 µM | 
O=C(c1ccccc1)c1nn(-c2ccc(Cl)cc2)c(=O)cc1C(F)(F)F | inconclusive: 15.8 µM [inhibitor, single point] | 
S=C(NCc1ccncc1)Nc1ccc(Br)cc1Cl | inconclusive: 12.6 µM [inhibitor, single point] | 
CCOc1cccc2sc(NC(=O)CCS(=O)(=O)c3ccccc3)nc12 | active: 11.2 µM | 
CCOC(=O)C(=Cc1ccc(-n2ccnc2)cc1)C(=O)OCC | inconclusive: 14.1 µM [inhibitor, partial curve, poor fit] | 
COc1ccc(S(=O)(=O)Nc2cccc(-c3ccc(N4CCCCCC4)nn3)c2)c(OC)c1 | inconclusive: 15.8 µM [inhibitor, single point] | 
CCCN1CCC(NC(=O)CC2C(=O)NCCN2Cc2cccc(OC)c2)CC1 (centres undefined) |  | inactive: -4.3%
CN(CC1CCCN(CCc2cccc(C(F)(F)F)c2)C1)C(=O)c1ccco1 (centres undefined) | inconclusive: 15.8 µM [inhibitor, partial curve] | 
CSc1ccccc1OCc1cc(C(=O)N2C[C@H]3CC[C@H]2C3)no1 |  | inactive: -29.5%
CC(C)(C)C(=O)Nc1sc(-c2ccccc2)cc1C(=O)O | inconclusive: 2.51 µM [activator, full curve] | 

SMILES | Potency | activity change, negative = inhibition
COc1ccc(CCNC(=O)C2CCN(S(=O)(=O)c3ccc(OC)cc3)CC2)cc1 | inconclusive: 11.2 µM [inhibitor, single point] | 
COc1ccc(-c2cc(-c3ccccc3)nc(SC(C)C(=O)O)c2C#N)cc1 (centres undefined) | active: 14.1 µM | 
Cc1cc(NC(=O)COC(=O)c2c(Cl)cccc2Cl)no1 | inconclusive: 15.8 µM [inhibitor, single point] | 
CCCOc1ccc(Cc2nc(N)nc(N)n2)cc1 | inconclusive: 1.78 µM [inhibitor, full curve] | 
COc1ccc([N+](=O)[O-])c(S(=O)(=O)c2ccccc2)n1 |  | inactive: -55.2%
NNC(=O)CSc1nc(-c2ccccc2)cn1-c1ccccc1 |  | inactive: -17%
Cc1ccc(C)c(N2CCN(S(=O)(=O)c3ccc4c(c3)NC(=O)CO4)CC2)c1 | inconclusive: 11.2 µM [inhibitor, partial curve, poor fit] | 
CC1(C)CC(=O)c2sc(NC(=O)CCS(=O)(=O)c3ccccc3)nc2C1 |  | inactive: -29.9%
O=C(Nc1ccc(C2=NCCN2)cc1)c1ccc(C(=O)Nc2ccc(C3=NCCN3)cc2)c(Cl)c1 | active: 0.891 µM | 
O=C(NC(Cc1ccccc1)c1nc2ccccc2[nH]1)C1CC(=O)N(c2ccc3c(c2)OCCO3)C1 (centres undefined) | inconclusive: 14.1 µM [inhibitor, partial curve] | 
COC(=O)/C(=C\c1cc(OC)c(OC)c(OC)c1)c1nc2ccccc2[nH]1 | inconclusive: 15.8 µM [inhibitor, single point] | 
COc1ccccc1C1N(c2ccc(Cl)cc2)C(=O)C2CCCN21 (centres undefined) | inconclusive: 28.2 µM [inhibitor, partial curve, poor fit] | 
O=C(NCCN1CCN(c2ccc([N+](=O)[O-])cc2)CC1)NCc1ccccc1 | active: 12.6 µM | 
COc1ccc(CNn2c(-c3ccccc3F)nc3ccccc3c2=O)cc1OC | inconclusive: 5.01 µM [inhibitor, full curve] | 
Cc1[nH]c2ccccc2c1/C=N/NC(=O)CNC(=O)Cc1ccccc1 |  | inactive: -4.95%
O=C(CCN1C(=O)S/C(=C\c2ccccc2)C1=O)NC1CCS(=O)(=O)C1 (centres undefined) |  | inactive: -29.3%
CC(NC(=O)c1ccc(Cl)cc1)C1CC2CCC1C2 (centres undefined) | inconclusive: 3.98 µM [inhibitor, single point] | 
Cc1ccc(C)c(N(CC(=O)Nc2cc(Cl)ccc2Oc2ccccc2)S(C)(=O)=O)c1 | active: 11.2 µM | 
COc1cc(O)cc(O)c1C(=O)/C=C/c1ccccc1 | inconclusive: 15.8 µM [inhibitor, single point] | 
COc1ccc(NC(=O)CCCn2cc([N+](=O)[O-])cn2)cc1 |  | inactive: -1.74%
N#CCCn1nc(-c2ccc(Cl)cc2)cc1Nc1ccccc1NC(=O)C(F)(F)F |  | inactive: -22.3%
O=C(NC1=NCCS1)c1cc(-c2ccc(-c3ccccc3)cc2)nc2ccccc12 | inconclusive: 1.41 µM [activator, full curve] | 
COc1cccc(CN(C)C(=O)c2ccc(N3CCCC3)c([N+](=O)[O-])c2)c1 | inconclusive: 3.55 µM [inhibitor, partial curve, poor fit] | 
